The record followed here is paper PMC5814579.

Data set [1] concerns OsASR2 (abscisic acid, stress and ripening 2) (Oryza sativa (rice, cultivar IRBB13)). Kind of data set: competition with a labelled probe. The note with it: 5-, 25-, 50-fold molar excess over labelled N1, bands weakened; LightShift Chemiluminescent EMSA kit; 1 ug protein per reaction; 20 min at room temperature; salt and pH not stated; recombinant protein; protein details: Myc (stated in Results), pET-32a vector.

Data set [2] shares this test system. The data set can be described thus: EMSA. The note with it: 1 ug protein per reaction, LightShift Chemiluminescent EMSA kit, 20 min at room temperature, salt and pH not stated, recombinant protein, protein details: Myc (stated in Results), pET-32a vector, label: biotin (dUTP end-labelled by terminal transferase).

The exact form of at least one protein or probe is not confirmed. For part of these data: Negatives hold for the conditions tested.

With “GATTAAGATTTTTCCTACCCTA (double strand) [unlabelled GT-1 competitor]”, the binding result in data set [1] was “binds”.

Regarding “GATTAAGATTTTTCCTACCCTA (double strand) [GT-1 probe (EMSA F/R)]”, the binding result in data set [2] is given as “binds”.

Consider “GATTAAGACCCCCACTACCCTA (double strand) [mutant GT-1 probe (EMSA-M F/R)]”, for which, in data set [2], the binding result is given as “no binding”.
